Experimental data taken from PubChem BioAssay AID445 (National Center for Advancing Translational Sciences (NCATS), 2006).
This is one part of the list. These are further read-outs of the screen, such as a control signal, another cell line or another target. No call is given for them. Compounds called inactive in the main read-out are mostly missing here. The note in brackets gives the kind of curve behind each potency; many fits are weak.

Experiment: IkB Signaling
Settings: ABC-DLBCL IkBa-CBG/CBR dual luciferase ratio (green luciferase fused to IkBa over red control in OCI-Ly3 lymphoma cells), 4 h
Method in brief: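 Curves were fitted separately to fusion (green), unfused (red) and ratio luminescence, then classed by r2, magnitude and activity. Cells: OCI-Ly3, 4 h compound plus doxycycline at 37C; 10 uM MG-132 defined full response.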

[1] = measured here: control luc red channel unless noted

## Cc1ccc(-n2ncc(C(=O)NCc3ccccc3C)c2-n2cccc2)cc1
[1]
  AC50: 12.6 µM [falling, partial curve]

## O=C(NCc1ccc2c(c1)CCN2C(=O)c1ccc(F)cc1)c1cc2ccccc2[nH]1
[1]
  AC50: 39.8 µM [falling, partial curve, poor fit]

## COc1ccccc1CNC(=O)CCC(=O)N1CC2CCCN2c2ccccc21 (centres undefined)
[1]
  AC50: 10 µM [falling, partial curve]

## COc1ccc(-c2[nH]c3ccccc3c2SCCNC(=O)c2cc(OC)c(OC)c(OC)c2)cc1
[1]
  AC50: 7.94 µM [falling, partial curve]

## O=C(CSc1nnc(COc2ccccc2Cl)o1)NC(=O)NC1CCCC1
[1]
  AC50: 31.6 µM [falling, partial curve]

## Cc1nc(NC(=O)CN2CCOCC2)sc1-c1ccccc1
[1]
  AC50: 39.8 µM [falling, single point]

## COc1ccc(-c2nc(CSCC(=O)NCc3ccc4c(c3)OCO4)c(C)o2)cc1OC
[1]
  AC50: 15.8 µM [falling, partial curve]

## c1ccc(CNc2nc3c(-c4ccccc4)nnn3c3ccccc23)cc1
[1]
  AC50: 0.1 µM [falling, full curve]

## Cc1ccc(-n2c(SCC(=O)Nc3ccc4c(c3)OCO4)nnc2-c2ccoc2C)cc1
[1]
  AC50: 20 µM [falling, partial curve]

## COc1ccc(SCc2cc(=O)c3cc(Cl)ccc3[nH]2)cc1
[1]
  AC50: 15.8 µM [rising, single point]

## O=C(Cc1ccc(Cl)cc1)Nc1ccc2nn(-c3ccc(Cl)cc3)nc2c1
[1]
  AC50: 0.398 µM [falling, full curve]

## O=C(O)c1cc(-n2c(/C=C\c3ccc(F)cc3)nc3ccccc3c2=O)ccc1Cl
[1]
  AC50: 20 µM [falling, partial curve]

## O=C(NCc1ccc(Cl)cc1)c1cnc(N2CCCCC2)c2ccccc12
[1]
  AC50: 15.8 µM [falling, partial curve]

## COc1ccc(CNC(=O)C2CCN(Cc3nc(-c4ccc(Cl)cc4)oc3C)CC2)cc1
[1]
  AC50: 12.6 µM [falling, partial curve]

## Cn1nnnc1Sc1ncnc2scc(-c3ccc(F)cc3)c12
[1]
  AC50: 39.8 µM [falling, single point]

## Cc1c(S(=O)(=O)c2cccc(Cl)c2)nnn1-c1cccc(C(F)(F)F)c1
[1]
  AC50: 6.31 µM [falling, partial curve]

## COc1cc(C(=O)Nc2ccc3nc(SCc4ccc(C)cc4)sc3c2)cc(OC)c1OC
[1]
  AC50: 5.01 µM [falling, partial curve]

## CN(C)CC(C(=O)c1ccccc1)c1ccccc1 (centres undefined)
Measured here: IkB-luc green channel
  AC50: 6.31 µM [rising, single point]
Measured here: control luc red channel
  AC50: 3.98 µM [falling, partial curve]
